Results reported in PubChem BioAssay AID2685 (National Center for Advancing Translational Sciences (NCATS), 2010).
Some of the results follow. Shown are side measurements of this screen, not its main read-out; they come without a call. Compounds called inactive in the main read-out are mostly missing here. Potencies come from curve fits of mixed quality, noted in brackets.

Assay: qHTS Assay for Lipid Storage Modulators in Drosophila S3 Cells;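 as to cell number change: cells counted by Cell Tracker Red CMTPX staining in the red channel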
Conditions: BODIPY lipid droplet fluorescence, 18-24 h; for cell number change: measured here: cell count max response, cells fed with added oleic acid
How it was run: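 Laser-scanning cytometry quantifies lipid droplet accumulation (500–530 nm total intensity; droplet/cell object ratio) in oleic acid-fed (400 uM added) Drosophila S3 cells treated with a concentration series. 20 uM Triacsin C defined 100% inhibition.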

[1] = measured here: lipid fluorescence (Fed channel) AC50, cells fed with added oleic acid
[2] = measured here: cell number channel AC50, cells fed with added oleic acid

Row | SMILES | cell number change | AC50 [1] | AC50 [2]
1 | Cc1oc(-c2ccc(Cl)cc2)nc1CS(=O)CC(=O)NC1CCCCCC1 (stereo not given) | -0.38% | 6.51 µM [rising, single point] | –
2 | O=C1c2ccccc2C(=O)C1(O)O | -16.3% | 10.3 µM [falling, single point] | –
3 | CCOc1ccccc1NC(=O)c1nnn(CC(=O)Nc2ccc3c(c2)OCO3)c1N | 15.2% | – | –
4 | Cc1ccc(NC(=O)COc2cccc(C)c2C)cc1S(=O)(=O)N1CCCCCC1 | 29.8% | 1.46 µM [rising, full curve] | –
5 | CC(NC(=O)C12CC3CC(CC(C3)C1)C2)C(=O)N/N=C/C1=C(N2CCOCC2)C(=C\c2ccccc2)/CC1 (stereo not given) | -10.1% | – | –
6 | CCOC(=O)c1c(-c2ccc(OC)cc2)csc1/N=C/C1=C(O)CCCC1=O | -21% | 29.1 µM [falling, single point] | –
7 | CCOc1ccccc1NC(=O)COC(=O)C(Cc1ccccc1)NC(=O)c1ccco1 (stereo not given) | -3.88% | 6.51 µM [falling, partial curve, poor fit] | –
8 | Cc1ccc(C)c(Cn2c(=O)n(CCC(=O)NCc3ccco3)c(=O)c3sccc32)c1 | – | – | 6.51 µM [rising, partial curve, poor fit]
9 | CCCCNC(=S)Nc1ccc(C(F)(F)F)cc1 | -49.3% | – | 16.4 µM [falling, single point]
10 | Cn1nnc2cc(NC(=O)Nc3cccc(C(F)(F)F)c3)ccc21 | – | 1.16 µM [falling, full curve, poor fit] | –
11 | Cc1ccc(NC(=O)c2ccc(S(=O)(=O)NCc3cccnc3)cc2)cc1C | 12.8% | 29.1 µM [falling, single point] | –
12 | O=C(COC(=O)Cc1cccc(C(F)(F)F)c1)NCc1ccco1 | 14.2% | 6.51 µM [rising, partial curve, poor fit] | –
13 | Cc1nn(Cc2ccccc2)c(N)c1-c1ccccc1 | -22.2% | 0.00461 µM [rising, full curve, poor fit] | –
14 | COc1ccc(C(=O)Nc2ccc(Cl)cc2C(=O)N2CCCC(C)C2)cc1OC (stereo not given) | 1.28% | 29.1 µM [rising, single point] | –
15 | COc1ccc(NC(=O)N2CCCC(C(=O)Nc3cccc(C)c3C)C2)cc1 (stereo not given) | 10.3% | – | –
16 | CCCCC1NC(C(=O)O)CS1 (stereo not given) | -31.6% | 5.8 µM [falling, full curve, poor fit] | 5.17 µM [falling, full curve]
17 | O=C(NC1CCS(=O)(=O)C1)Oc1ccccc1 (stereo not given) | -111% | 0.116 µM [falling, full curve, poor fit] | –
18 | COCCCNC(=O)c1cc(=O)n(Cc2ccc(Cl)cc2)c2ccccc12 | -32% | 3.26 µM [falling, full curve] | 3.66 µM [falling, full curve]
19 | Cc1ccc(S(=O)(=O)CCC(=O)N(CCN2CCOCC2)c2nc3ccccc3s2)cc1 | -40% | – | 18.4 µM [falling, partial curve]
20 | O=C(Nc1ccc(Oc2ccc3c(c2)C(=O)N(c2ccc(O)cc2)C3=O)cc1)c1cccs1 | -32.5% | – | 3.66 µM [falling, partial curve, poor fit]

Row | SMILES | cell number change | AC50 [1] | AC50 [2]
21 | CCc1ccccc1N1CC(C(=O)O)CC1=O (stereo not given) | -5.82% | 0.116 µM [falling, full curve, poor fit] | –
22 | COC(=O)C1=C(C)N(CCCC(=O)O)C(=O)NC1c1ccc(Br)cc1 (stereo not given) | -10.2% | 16.4 µM [falling, partial curve, poor fit] | –
23 | CC(C)(C)N1CC(OC(N)=O)C1 | -20.1% | 5.8 µM [falling, full curve, poor fit] | –
24 | CC(Cl)C(=O)c1c[nH]c2ccccc12 (stereo not given) | 36.4% | – | 0.0291 µM [rising, full curve, poor fit]
25 | CC(=O)C1=C(C)NC(SCc2cccc([N+](=O)[O-])c2)=C(C#N)C1c1ccco1 (stereo not given) | -30% | 2.31 µM [rising, partial curve, poor fit] | 29.1 µM [falling, single point]
26 | CC(=O)c1cccc(S(=O)(=O)NCC(C)(C)N2CCOCC2)c1 | 13.6% | – | –
27 | COC(=O)c1cc(NC(=O)c2ccccc2)c(=O)oc1/C=C/Nc1ccc(Oc2ccccc2)cc1 | -97.7% | 0.00517 µM [falling, full curve, poor fit] | 29.1 µM [falling, partial curve, poor fit]
28 | CC(Oc1ccccc1F)c1nnc(SCC(=O)c2c(N)n(C3CC3)c(=O)[nH]c2=O)o1 (stereo not given) | 14.2% | – | 0.0291 µM [falling, full curve, poor fit]
29 | CC(=O)Nc1ccc(NC(=O)/C=C/c2ccccc2)cc1 | -4.21% | – | –
30 | Cc1ccc(C(=O)COC(=O)c2cc(Cl)nc3ccccc23)cc1C | 8.89% | 4.61 µM [rising, full curve, poor fit] | –
31 | O=C(COc1ccc2ccc(=O)oc2c1)NCc1ccccn1 | 15.5% | – | –
32 | Cc1ccc(S(=O)(=O)N(C)CC(=O)OCC(=O)N2CCCC2=O)cc1 | – | – | 6.51 µM [falling, partial curve, poor fit]
33 | CCS(=O)(=O)n1nc(-c2ccc(Cl)cc2)nc1SCc1ccccc1 | -80.4% | 29.1 µM [falling, single point] | 29.1 µM [falling, single point]
34 | COc1cccc(OCC(=O)Nc2ccccc2C(=O)Nc2ccc(C(=O)O)cc2)c1 | 12.4% | – | –
35 | NC(=O)c1cc(S(=O)(=O)NCc2cccc(Br)c2)cs1 | -22.1% | 29.1 µM [rising, single point] | –
36 | Cc1ccc(-c2nnc(Nc3ccc(OCC(N)=O)cc3)c3ccccc23)cc1S(N)(=O)=O | -8.33% | – | –
37 | CCS(=O)(=O)CCSC(=N)N | – | 0.291 µM [falling, partial curve, poor fit] | –
38 | Oc1ccc(Cl)cc1-c1cc(-c2cccc(Br)c2)n[nH]1 | -3.9% | 6.51 µM [falling, partial curve, poor fit] | 0.092 µM [rising, full curve, poor fit]
39 | Cc1ccc2nsnc2c1NC(=O)c1ccc2c(c1)OCCO2 | 25.9% | 18.4 µM [rising, single point] | –
40 | CCOC(=O)N1CCN(S(=O)(=O)c2ccc(Br)s2)CC1 | 55.8% | 13 µM [rising, partial curve] | 20.6 µM [rising, single point]

Individual results from the list.
AC50 [1], `CCS(=O)(=O)CCSC(=N)N` is entered as 0.291 µM [falling, partial curve, poor fit]
cell number change, `COc1ccc(NC(=O)N2CCCC(C(=O)Nc3cccc(C)c3C)C2)cc1` (stereo not given) is entered as 10.3%

(more compounds)

Row | SMILES | cell number change | AC50 [1] | AC50 [2]
41 | COc1ccc2nc(/N=C(\N)NC(=O)Nc3ccccc3)nc(C)c2c1 | -43.8% | 0.116 µM [rising, full curve] | 29.1 µM [falling, single point]
42 | COc1cc(NC(=O)COC(=O)Cc2ccc(-c3ccccc3)cc2)cc(OC)c1 | -30.1% | – | 20.6 µM [falling, single point]
43 | COc1cc(OC)cc(C(=O)NNC(=O)CNC(=O)c2ccc(Br)o2)c1 | – | 0.231 µM [rising, full curve, poor fit] | –
44 | Clc1ccc(C(Cn2ccnc2)OCc2c(Cl)cccc2Cl)c(Cl)c1 (stereo not given) | -27.5% | 0.517 µM [rising, full curve] | 0.461 µM [rising, full curve]
45 | CN1/C(=C\C(=O)c2cccs2)C(C)(C)c2ccccc21 | 35.8% | 29.1 µM [falling, partial curve, poor fit] | 6.51 µM [rising, partial curve]
46 | CN(CC(=O)Nc1cccc(F)c1)C(=O)C1CC(=O)N(CCc2ccccc2)C1 (stereo not given) | 30.5% | – | 7.31 µM [rising, partial curve]
47 | Cc1cccc(NC(=O)COc2cccc3c2CCN(Cc2ccccc2)C3=O)c1C | 1.78% | 0.0517 µM [rising, full curve, poor fit] | –
48 | Cc1ccc(S(=O)(=O)NCCC(=O)O)cc1 | -57.4% | – | 29.1 µM [falling, single point]
49 | Cc1ccccc1C(=O)NNC(=O)CSc1nc(-c2ccccc2)cc(=O)[nH]1 | -43.8% | – | 18.4 µM [falling, single point]
50 | CCCCn1c(SCC(=O)N2CCC(C)CC2)nc2cc(S(N)(=O)=O)ccc21 | -18.6% | – | –
51 | NC(=O)CSc1nnc(-c2cnccn2)n1-c1ccccc1 | 10.8% | 1.46 µM [falling, partial curve] | –
52 | O=C(O)/C=C/C(=O)Nc1ccc(F)cc1F | -7.34% | 8.2 µM [falling, partial curve, poor fit] | –
53 | CCN(CC)c1ccc(/C=N/N(c2ccccc2)c2ccccc2)c(O)c1 | -45.5% | 20.6 µM [falling, partial curve] | 18.4 µM [falling, single point]
54 | COCCNC(=O)C(c1ccc(C)o1)N(Cc1ccc(OC)cc1)C(=O)Cn1nnc2ccccc21 (stereo not given) | 32.5% | 0.00517 µM [rising, full curve, poor fit] | 14.6 µM [rising, single point]
55 | CC1CN(C(=O)Cn2c(C(F)(F)F)nc3ccccc32)CC(C)O1 (stereo not given) | 10.7% | – | –
56 | Cc1cc(OCC(=O)Nc2ccncc2)c(C)cc1Br | -30.5% | 0.164 µM [falling, full curve] | 0.0058 µM [falling, full curve, poor fit]
57 | COc1ccc(OCC(=O)N2CCC3(CC2)CC(=O)c2ccccc2O3)cc1 | -12.9% | 8.2 µM [falling, partial curve] | –
58 | O=C(NCc1ccccn1)Nc1cccc(F)c1 | -20% | 0.794 µM [falling, full curve, poor fit] | –
59 | COc1ccc(CNC(=O)/C=C/c2ccc(OCCCF)cc2)cc1 | 29.9% | – | –
